Test [1] has as its target N-Flag (UniProt Q40392). The test is described as follows: native gel or EMSA. (In general: In EMSA bound probe runs differently from free probe, usually more slowly.)
The target in test [2] is N-Flag (UniProt Q40392). The test is described as follows: native gel or EMSA. This is another data set of the same source.

Like-named read-outs stand apart in the source and are kept apart here. These are yes or no findings as the source states them, for the method shown. Some binding calls cover weakened binding; strength is not graded here. Tags and fused reporters may be left off the sequences shown.

B1: N-Flag (receptor, UniProt Q40392 1-1144)
chain: MASSSSSSRWSYDVFLSFRGEDTRKTFTSHLYEVLNDKGIKTFQDDKRLEYGATIPGELCKAIEESQFAIVVFSENYATSRWCLNELVKIMECKTRFKQTVIPIFYDVDPSHVRNQKESFAKAFEEHETKYKDDVEGIQRWRIALNEAANLKGSCDNRDKTDADCIRQIVDQISSKLCKISLSYLQNIVGIDTHLEKIESLLEIGINGVRIMGIWGMGGVGKTTIARAIFDTLLGRMDSSYQFDGACFLKDIKENKRGMHSLQNALLSELLREKANYNNEEDGKHQMASRLRSKKVLIVLDDIDNKDHYLEYLAGDLDWFGNGSRIIITTRDKHLIEKNDIIYEVTALPDHESIQLFKQHAFGKEVPNENFEKLSLEVVNYAKGLPLALKVWGSLLHNLRLTEWKSAIEHMKNNSYSGIIDKLKISYDGLEPKQQEMFLDIACFLRGEEKDYILQILESCHIGAEYGLRILIDKSLVFISEYNQVQMHDLIQDMGKYIVNFQKDPGERSRLWLAKEVEEVMSNNTGTMAMEAIWVSSYSSTLRFSNQAVKNMKRLRVFNMGRSSTHYAIDYLPNNLRCFVCTNYPWESFPSTFELKMLVHLQLRHNSLRHLWTETKHLPSLRRIDLSWSKRLTRTPDFTGMPNLEYVNLYQCSNLEEVHHSLGCCSKVIGLYLNDCKSLKRFPCVNVESLEYLGLRSCDSLEKLPEIYGRMKPEIQIHMQGSGIRELPSSIFQYKTHVTKLLLWNMKNLVALPSSICRLKSLVSLSVSGCSKLESLPEEIGDLDNLRVFDASDTLILRPPSSIIRLNKLIILMFRGFKDGVHFEFPPVAEGLHSLEYLNLSYCNLIDGGLPEEIGSLSSLKKLDLSRNNFEHLPSSIAQLGALQSLDLKDCQRLTQLPELPPELNELHVDCHMALKFIHYLVTKRKKLHRVKLDDAHNDTMYNLFAYTMFQNISSMRHDISASDSLSLTVFTGQPYPEKIPSWFHHQGWDSSVSVNLPENWYIPDKFLGFAVCYSRSLIDTTAHLIPVCDDKMSRMTQKLALSECDTESSNYSEWDIHFFFVPFAGLWDTSKANGKTPNDYGIIRLSFSGEEKMYGLRLLYKEGPEVNALLQMRENSNEPTEHSTGIRRTQYNNRTSFYELING
Consider B1, for which the binding entry is given as “binds weakly” with N-Flag [1] and “binds” in the test with N-Flag [2].
